Results are given in words; binding and its absence hold for the method and conditions named. In cells and extracts the contact can be indirect. Some entries that bind do so weakly or less than the wild type. For some of these results: Where a sequence is shown, tags or fusion partners need not be part of it.
Key:
Test in all cases: co-IP; lysates (RIPA buffer) of CSIAN cells co-transfected with Flag-tagged CSB and a Myc-tagged protein, 24 hr post transfection; anti-c-myc agarose overnight; Western blot with anti-Flag
Myc-tagged DHX36 (human) = biological target: T1, Myc-tagged DHX36 (human) (UniProt Q9H2U1)
T1 sequence: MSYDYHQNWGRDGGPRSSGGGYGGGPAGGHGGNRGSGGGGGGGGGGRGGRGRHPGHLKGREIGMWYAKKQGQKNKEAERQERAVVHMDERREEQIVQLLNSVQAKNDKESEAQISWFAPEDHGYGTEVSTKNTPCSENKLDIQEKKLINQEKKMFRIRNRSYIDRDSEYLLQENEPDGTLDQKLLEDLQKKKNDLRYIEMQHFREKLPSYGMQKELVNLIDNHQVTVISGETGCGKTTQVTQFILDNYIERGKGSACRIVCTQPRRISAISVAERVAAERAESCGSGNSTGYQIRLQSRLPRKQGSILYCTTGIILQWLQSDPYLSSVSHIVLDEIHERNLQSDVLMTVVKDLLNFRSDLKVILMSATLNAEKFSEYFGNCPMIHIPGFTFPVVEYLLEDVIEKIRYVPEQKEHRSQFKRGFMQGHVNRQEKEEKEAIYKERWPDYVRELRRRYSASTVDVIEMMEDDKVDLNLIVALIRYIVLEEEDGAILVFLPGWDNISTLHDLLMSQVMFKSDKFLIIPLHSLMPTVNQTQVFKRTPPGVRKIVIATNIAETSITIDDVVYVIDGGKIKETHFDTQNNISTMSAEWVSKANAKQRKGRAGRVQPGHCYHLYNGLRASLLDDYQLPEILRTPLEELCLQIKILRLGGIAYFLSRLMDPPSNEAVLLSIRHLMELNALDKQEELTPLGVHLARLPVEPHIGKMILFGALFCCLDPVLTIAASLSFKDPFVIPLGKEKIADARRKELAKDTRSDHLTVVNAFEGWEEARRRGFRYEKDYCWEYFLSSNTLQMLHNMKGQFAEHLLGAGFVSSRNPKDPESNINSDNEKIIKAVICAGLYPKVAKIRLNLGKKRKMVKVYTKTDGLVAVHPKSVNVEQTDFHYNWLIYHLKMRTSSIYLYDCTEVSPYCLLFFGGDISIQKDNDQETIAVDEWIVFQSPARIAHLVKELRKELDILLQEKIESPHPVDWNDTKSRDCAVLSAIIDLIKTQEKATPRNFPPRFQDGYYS

Chains of the proteins cited; added tags and fusions are not shown.
UniProt P51531: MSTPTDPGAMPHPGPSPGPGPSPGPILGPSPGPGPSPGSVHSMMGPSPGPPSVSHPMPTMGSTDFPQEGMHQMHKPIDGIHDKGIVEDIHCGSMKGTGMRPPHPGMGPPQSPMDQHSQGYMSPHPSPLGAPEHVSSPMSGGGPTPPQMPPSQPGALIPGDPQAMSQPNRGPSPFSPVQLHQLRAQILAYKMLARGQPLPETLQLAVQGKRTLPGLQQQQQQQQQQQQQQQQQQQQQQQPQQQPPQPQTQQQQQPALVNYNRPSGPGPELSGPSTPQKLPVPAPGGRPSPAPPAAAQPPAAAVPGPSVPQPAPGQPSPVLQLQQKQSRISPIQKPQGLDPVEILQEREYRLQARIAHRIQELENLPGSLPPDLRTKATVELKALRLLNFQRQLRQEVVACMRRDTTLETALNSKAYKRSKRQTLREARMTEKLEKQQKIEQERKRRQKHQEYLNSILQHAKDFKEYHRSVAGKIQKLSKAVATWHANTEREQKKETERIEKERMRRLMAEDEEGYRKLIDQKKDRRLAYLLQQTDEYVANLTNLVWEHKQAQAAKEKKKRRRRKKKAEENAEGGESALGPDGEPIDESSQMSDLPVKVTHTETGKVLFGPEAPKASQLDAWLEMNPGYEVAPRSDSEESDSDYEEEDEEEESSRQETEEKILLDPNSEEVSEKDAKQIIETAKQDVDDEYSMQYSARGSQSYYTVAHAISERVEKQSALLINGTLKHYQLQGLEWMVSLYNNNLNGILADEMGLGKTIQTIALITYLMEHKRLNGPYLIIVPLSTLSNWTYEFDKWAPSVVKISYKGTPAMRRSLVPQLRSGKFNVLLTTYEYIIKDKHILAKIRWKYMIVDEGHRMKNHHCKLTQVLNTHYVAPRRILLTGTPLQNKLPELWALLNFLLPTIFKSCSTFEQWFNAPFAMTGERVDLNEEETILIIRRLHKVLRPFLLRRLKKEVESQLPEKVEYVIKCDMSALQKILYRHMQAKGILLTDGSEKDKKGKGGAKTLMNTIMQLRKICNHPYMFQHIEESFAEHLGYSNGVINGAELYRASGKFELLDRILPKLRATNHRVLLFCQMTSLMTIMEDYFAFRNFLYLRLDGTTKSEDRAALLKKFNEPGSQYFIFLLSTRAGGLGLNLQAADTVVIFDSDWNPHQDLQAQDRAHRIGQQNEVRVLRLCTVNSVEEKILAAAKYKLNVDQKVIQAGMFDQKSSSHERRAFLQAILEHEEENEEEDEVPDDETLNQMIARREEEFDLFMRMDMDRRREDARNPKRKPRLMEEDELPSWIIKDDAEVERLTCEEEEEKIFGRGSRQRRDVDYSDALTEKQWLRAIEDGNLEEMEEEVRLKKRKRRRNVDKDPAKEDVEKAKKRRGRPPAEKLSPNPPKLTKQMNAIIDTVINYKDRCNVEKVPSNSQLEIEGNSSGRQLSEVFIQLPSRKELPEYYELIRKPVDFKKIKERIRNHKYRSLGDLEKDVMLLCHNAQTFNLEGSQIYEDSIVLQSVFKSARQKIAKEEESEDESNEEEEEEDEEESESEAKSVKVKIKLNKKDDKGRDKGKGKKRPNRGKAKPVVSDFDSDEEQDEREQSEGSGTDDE
UniProt Q09028: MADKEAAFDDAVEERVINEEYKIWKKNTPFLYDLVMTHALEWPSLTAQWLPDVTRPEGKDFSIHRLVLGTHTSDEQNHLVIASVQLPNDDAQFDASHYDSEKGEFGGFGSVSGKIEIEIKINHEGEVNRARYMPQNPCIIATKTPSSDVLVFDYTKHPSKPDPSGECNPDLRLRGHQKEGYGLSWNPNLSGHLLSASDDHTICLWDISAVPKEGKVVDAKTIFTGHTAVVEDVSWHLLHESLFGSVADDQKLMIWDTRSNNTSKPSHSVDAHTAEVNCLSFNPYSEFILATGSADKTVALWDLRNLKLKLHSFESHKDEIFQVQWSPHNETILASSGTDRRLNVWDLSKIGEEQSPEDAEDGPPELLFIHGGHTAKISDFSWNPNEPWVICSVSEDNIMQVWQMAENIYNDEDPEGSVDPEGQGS
UniProt P17844: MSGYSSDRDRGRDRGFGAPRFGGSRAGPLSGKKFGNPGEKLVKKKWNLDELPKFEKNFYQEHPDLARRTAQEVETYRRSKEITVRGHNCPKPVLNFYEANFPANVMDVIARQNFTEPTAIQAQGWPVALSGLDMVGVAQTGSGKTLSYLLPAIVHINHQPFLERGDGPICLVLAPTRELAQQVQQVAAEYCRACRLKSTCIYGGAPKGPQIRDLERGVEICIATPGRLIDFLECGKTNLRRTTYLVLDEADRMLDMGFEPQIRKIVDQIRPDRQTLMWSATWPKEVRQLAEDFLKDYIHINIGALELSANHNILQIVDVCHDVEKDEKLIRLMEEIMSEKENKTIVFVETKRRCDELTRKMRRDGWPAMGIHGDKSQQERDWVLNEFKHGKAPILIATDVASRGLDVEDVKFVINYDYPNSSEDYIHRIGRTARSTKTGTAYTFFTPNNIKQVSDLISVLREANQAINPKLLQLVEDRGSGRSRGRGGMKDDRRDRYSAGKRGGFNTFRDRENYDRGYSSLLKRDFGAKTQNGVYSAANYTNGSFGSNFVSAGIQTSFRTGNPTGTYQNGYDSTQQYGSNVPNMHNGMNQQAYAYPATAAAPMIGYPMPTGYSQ
UniProt O94776: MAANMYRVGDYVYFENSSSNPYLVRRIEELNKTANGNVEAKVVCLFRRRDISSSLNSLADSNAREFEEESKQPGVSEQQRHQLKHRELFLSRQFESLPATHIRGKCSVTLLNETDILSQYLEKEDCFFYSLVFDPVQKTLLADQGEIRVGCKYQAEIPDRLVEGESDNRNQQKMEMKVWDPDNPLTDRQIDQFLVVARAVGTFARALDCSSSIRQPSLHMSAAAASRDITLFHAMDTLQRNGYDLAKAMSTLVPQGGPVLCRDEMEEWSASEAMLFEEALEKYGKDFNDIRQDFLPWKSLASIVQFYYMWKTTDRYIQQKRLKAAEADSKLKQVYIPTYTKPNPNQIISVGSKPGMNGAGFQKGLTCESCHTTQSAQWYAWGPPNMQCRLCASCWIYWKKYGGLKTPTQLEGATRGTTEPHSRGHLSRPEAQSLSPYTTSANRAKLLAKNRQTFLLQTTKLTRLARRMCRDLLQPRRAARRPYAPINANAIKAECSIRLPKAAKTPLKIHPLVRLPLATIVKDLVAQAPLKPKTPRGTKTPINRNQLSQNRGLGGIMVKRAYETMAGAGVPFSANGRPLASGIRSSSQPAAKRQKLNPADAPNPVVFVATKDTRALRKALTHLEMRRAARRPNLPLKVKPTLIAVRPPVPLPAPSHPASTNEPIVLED
UniProt Q03468: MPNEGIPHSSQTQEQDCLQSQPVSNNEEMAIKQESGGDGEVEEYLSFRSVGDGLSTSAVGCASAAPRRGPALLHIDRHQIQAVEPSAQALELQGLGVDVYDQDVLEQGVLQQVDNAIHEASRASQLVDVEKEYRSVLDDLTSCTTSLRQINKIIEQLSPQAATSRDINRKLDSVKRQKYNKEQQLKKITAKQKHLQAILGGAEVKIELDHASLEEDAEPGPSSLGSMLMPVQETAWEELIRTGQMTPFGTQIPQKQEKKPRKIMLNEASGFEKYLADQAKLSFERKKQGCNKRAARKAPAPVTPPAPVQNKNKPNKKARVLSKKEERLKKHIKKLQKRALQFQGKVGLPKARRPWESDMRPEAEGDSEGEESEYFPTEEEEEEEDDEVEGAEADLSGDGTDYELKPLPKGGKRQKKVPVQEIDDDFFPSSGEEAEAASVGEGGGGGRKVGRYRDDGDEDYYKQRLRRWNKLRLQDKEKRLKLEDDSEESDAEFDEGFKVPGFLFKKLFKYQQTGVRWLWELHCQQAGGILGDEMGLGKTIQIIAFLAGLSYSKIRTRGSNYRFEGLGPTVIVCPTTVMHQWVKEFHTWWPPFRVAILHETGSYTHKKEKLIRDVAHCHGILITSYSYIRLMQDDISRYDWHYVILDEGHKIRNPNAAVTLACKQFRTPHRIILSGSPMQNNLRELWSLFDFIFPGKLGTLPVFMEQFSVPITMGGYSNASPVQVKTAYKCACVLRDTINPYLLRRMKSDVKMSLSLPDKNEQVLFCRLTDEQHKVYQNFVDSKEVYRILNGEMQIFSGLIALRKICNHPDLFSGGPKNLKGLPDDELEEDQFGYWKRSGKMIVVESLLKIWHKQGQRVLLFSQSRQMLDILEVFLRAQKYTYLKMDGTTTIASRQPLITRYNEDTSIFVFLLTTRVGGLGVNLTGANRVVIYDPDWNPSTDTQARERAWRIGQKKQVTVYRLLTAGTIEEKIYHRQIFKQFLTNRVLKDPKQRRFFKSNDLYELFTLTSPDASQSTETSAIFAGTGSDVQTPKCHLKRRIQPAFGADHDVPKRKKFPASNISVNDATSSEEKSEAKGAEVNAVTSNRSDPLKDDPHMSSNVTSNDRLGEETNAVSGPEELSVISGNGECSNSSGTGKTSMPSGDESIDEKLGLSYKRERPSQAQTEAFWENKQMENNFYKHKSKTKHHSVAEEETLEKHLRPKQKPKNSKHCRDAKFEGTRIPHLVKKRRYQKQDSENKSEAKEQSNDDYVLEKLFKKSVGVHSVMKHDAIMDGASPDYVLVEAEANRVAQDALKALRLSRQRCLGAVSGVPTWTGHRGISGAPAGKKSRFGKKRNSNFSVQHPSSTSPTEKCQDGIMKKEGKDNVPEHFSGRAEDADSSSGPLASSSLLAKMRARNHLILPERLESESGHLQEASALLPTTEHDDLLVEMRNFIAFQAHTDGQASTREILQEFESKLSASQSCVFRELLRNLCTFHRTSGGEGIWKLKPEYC

[1] = biological target: Myc-tagged SMARCA2 (human) (UniProt P51531)
Myc-tagged RBBP4 (human) = Myc-tagged RBBP4 (human) (UniProt Q09028)
Myc-tagged DDX5 (human) = Myc-tagged DDX5 (human) (UniProt P17844)
Myc-tagged DDX23 (human) = biological target: T2, Myc-tagged DDX23 (human) (UniProt Q9BUQ8)
T2 sequence: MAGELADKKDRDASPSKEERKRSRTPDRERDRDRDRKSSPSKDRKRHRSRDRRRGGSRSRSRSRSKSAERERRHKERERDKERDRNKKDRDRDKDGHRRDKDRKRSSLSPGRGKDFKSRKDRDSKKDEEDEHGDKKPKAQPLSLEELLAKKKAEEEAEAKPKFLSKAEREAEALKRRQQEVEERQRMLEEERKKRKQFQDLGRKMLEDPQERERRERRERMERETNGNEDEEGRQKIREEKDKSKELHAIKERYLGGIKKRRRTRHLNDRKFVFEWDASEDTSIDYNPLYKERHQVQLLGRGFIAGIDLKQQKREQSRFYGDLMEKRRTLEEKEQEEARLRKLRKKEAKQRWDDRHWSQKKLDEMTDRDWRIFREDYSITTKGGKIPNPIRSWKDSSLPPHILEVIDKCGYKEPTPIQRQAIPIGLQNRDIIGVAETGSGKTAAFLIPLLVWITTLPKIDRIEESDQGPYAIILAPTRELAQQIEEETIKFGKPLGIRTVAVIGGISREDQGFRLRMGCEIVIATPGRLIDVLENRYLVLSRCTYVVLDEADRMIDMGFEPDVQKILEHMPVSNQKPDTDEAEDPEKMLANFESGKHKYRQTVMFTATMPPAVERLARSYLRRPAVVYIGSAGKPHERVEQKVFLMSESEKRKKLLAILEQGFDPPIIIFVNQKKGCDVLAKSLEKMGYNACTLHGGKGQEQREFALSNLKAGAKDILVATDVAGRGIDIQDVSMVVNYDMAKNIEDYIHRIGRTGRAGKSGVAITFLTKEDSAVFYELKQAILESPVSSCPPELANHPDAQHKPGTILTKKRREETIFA

Myc-tagged CSTF1 (human) = biological target: T3, Myc-tagged CSTF1 (human) (UniProt Q05048)
T3 sequence: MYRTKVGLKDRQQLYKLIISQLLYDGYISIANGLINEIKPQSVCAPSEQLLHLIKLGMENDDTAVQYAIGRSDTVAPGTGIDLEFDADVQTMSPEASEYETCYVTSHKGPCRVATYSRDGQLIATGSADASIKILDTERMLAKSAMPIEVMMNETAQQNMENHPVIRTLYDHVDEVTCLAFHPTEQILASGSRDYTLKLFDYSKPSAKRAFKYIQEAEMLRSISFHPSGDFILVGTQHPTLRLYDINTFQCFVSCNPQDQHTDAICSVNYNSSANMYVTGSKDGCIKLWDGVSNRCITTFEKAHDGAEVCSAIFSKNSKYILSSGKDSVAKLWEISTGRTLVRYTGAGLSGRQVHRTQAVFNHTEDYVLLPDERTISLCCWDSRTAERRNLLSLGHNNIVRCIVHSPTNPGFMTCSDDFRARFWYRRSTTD

Myc-tagged MTA2 (human) = Myc-tagged MTA2 (human) (UniProt O94776)

binding (Myc-tagged DHX36 (human)): binds
binding [1]: binds weakly
binding (Myc-tagged RBBP4 (human)): binds
binding (Myc-tagged DDX5 (human)): binds
binding (Myc-tagged DDX23 (human)): binds
binding (Myc-tagged CSTF1 (human)): binds
binding (Myc-tagged MTA2 (human)): binds
Substance: Flag-tagged CSB (from UniProt Q03468 1-1493)

From article PMC4451243
